System: MLO-Y4 cells stably transduced with GFP
Experiment: Apoptosis by nuclear morphology of MLO-Y4 cells transduced with nuclear GFP
Assay type: cell-based, murine
Settings: absence of dexamethasone; 10^−7 M
Description: The retroviral vector containing the nuclear green fluorescent protein (GFP) was provided by Dr. Charles O'Brien (University of Arkansas for Medical Sciences, Little Rock, Ark.). The SV40 large T antigen nuclear localization sequence was attached to the carboxyterminus of the cDNA construct encoding GFP and subcloned into the pLXSN retroviral vector (CLONTECH, Palo Alto, Calif.). The plasmid harboring the retroviral construct was transiently transfected into the packaging cell line Phoenix Eco using SuperFect (Qiagen, Santa Clarita, Calif.). Supernatants containing retroviral particles were collected 24-48 h after transfection, and used immediately to infect cell cultures. […]
Cells presenting brown nuclear staining were considered positive. More than 500 cells per condition were analyzed. […] At least 100 cells per condition were counted.
Apoptosis induced in osteocytes was confirmed by fluorescent microscopy using MLO-Y4 cells stable transduced with green fluorescent protein. […] Numbers indicate the percentage of cells undergoing apoptosis, as determined by evaluating the nuclear morphology of>500 cells in fields selected by systematic random. […]
MLO-Y4 cells stably transduced with GFP were treated for 1 h with 10^−7 M concentration of the indicated bisphosphonates, followed by addition of 10^−6 M dexamethasone. […] The cells were evaluated under a fluorescent microscopy. […]

NCCCC(O)(P(=O)(O)O)P(=O)(O)O [alendronate, 4-amino-1-hydroxybutylidene-1,1-bisphosphonate]
proportion of cells exhibiting chromatin condensation and/or nuclear fragmentation versus untreated: no significant differences
